From paper PMC11951571

Assays:
Assay in all cases: fluorescence anisotropy
Settings in all cases: 1 uM protein, 10 nM DNA, 50 uM sinefungin, DNA stays bound with Fos-1 ecRNA; 50 mM KH2PO4/K2HPO4 pH 7.8, 1 mM EDTA, 1 mM DTT, 0.2 mg/ml BSA, 20 mM NaCl, 50 uM sinefungin (printed 'μm'), room temperature, 5 min; recombinant protein; residues 634-912; protein details: His (pET28a, nickel column); label: 5' 6-FAM top strand
DNMT3A_CD R736A (human) = DNMT3A_CD R736A (human) (UniProt Q9Y6K1)
DNMT3A_CD WT (human) = DNMT3A_CD WT (human) (UniProt Q9Y6K1)
DNMT3A_CD R729A (human) = DNMT3A_CD R729A (human) (UniProt Q9Y6K1)

Measured: binding result

TGGATATCTAGGGGCGCTATGATATCT (double strand) [GCbox30 duplex]
binds: all assays above

The exact form of at least one protein or probe is not confirmed. At least one verdict was read from the data and is not stated in words by the source.
